According to the supplement of paper PMC10849652:
The list shows a part of the results.

The chains behind the UniProt entries cited, without tags or fusion partners. Where a name states a change or a piece, a line headed by the entry shows the natural chain unless it says otherwise.
UniProt P15586: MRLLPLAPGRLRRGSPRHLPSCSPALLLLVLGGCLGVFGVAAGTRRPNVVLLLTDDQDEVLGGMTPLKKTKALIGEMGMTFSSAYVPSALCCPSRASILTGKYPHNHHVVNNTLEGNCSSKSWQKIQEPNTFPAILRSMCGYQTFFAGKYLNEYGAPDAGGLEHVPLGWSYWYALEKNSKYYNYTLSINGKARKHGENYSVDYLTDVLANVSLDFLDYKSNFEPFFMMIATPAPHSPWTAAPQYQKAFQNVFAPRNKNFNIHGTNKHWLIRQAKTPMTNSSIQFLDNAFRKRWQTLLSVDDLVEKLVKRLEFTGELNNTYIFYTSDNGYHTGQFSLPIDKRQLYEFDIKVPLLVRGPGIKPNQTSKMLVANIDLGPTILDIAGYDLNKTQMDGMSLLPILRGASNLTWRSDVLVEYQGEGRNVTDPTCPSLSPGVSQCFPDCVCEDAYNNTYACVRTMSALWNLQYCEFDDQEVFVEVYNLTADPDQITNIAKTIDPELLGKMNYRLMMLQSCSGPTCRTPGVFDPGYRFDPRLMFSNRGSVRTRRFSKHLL
UniProt O76003: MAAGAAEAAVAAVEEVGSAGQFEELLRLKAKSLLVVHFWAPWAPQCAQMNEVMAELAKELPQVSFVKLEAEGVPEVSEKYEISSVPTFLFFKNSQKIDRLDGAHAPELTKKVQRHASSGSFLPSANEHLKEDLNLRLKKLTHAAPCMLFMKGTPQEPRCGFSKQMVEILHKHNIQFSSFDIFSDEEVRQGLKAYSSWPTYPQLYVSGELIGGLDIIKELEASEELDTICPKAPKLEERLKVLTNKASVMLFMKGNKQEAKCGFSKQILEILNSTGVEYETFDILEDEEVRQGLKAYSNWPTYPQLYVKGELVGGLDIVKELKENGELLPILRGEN
UniProt Q86V85: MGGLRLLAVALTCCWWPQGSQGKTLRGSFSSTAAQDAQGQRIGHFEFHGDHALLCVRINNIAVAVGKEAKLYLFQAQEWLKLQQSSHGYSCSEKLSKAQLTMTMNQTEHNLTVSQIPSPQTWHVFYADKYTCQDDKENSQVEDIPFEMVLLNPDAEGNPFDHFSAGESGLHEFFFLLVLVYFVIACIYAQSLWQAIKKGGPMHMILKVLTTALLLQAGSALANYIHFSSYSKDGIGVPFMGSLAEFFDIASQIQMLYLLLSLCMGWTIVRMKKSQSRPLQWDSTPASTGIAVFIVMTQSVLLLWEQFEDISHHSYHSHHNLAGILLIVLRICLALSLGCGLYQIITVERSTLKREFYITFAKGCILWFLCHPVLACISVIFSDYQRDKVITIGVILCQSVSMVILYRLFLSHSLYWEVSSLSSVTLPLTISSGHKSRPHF
UniProt Q86VQ1: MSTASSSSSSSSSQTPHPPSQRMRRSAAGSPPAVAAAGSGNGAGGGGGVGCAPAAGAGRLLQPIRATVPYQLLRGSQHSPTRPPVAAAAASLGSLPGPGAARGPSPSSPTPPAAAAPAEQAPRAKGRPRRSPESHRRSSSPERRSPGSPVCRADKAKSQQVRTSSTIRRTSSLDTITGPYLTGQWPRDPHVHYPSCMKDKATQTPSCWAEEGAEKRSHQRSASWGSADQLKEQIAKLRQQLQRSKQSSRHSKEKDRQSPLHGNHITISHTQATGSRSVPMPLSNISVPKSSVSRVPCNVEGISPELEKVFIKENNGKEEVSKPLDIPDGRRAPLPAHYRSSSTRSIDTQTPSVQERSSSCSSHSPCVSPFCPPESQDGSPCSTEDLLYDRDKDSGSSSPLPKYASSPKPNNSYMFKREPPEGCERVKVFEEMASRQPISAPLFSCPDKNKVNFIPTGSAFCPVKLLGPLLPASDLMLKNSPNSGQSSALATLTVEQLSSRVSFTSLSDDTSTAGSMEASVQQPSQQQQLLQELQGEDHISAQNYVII
UniProt P49448: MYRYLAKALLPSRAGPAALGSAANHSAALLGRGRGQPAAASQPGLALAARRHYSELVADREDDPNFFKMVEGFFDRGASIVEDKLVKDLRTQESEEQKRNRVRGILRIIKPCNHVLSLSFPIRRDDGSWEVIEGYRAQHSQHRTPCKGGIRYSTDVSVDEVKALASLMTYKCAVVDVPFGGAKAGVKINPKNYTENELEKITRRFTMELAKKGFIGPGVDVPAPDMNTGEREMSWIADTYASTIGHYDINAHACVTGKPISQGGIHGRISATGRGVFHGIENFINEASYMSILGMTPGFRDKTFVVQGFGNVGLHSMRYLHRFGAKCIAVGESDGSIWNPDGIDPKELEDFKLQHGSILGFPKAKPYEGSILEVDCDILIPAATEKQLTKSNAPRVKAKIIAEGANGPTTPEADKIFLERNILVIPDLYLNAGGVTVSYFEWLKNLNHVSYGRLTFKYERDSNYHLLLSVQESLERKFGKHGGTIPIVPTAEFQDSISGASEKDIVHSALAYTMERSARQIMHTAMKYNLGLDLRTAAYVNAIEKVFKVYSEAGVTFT
UniProt P06280: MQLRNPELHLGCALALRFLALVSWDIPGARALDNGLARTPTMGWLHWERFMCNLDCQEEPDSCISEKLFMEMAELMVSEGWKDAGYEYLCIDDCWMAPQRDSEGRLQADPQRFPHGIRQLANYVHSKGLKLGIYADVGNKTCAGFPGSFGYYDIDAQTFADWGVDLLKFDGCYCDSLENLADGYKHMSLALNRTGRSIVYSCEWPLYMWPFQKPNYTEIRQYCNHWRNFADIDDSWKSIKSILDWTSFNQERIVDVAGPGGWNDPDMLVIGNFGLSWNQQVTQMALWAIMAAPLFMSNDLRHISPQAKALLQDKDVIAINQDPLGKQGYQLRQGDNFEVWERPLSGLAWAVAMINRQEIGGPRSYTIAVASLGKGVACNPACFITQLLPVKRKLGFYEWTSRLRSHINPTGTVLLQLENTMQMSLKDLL
UniProt Q9Y2X7: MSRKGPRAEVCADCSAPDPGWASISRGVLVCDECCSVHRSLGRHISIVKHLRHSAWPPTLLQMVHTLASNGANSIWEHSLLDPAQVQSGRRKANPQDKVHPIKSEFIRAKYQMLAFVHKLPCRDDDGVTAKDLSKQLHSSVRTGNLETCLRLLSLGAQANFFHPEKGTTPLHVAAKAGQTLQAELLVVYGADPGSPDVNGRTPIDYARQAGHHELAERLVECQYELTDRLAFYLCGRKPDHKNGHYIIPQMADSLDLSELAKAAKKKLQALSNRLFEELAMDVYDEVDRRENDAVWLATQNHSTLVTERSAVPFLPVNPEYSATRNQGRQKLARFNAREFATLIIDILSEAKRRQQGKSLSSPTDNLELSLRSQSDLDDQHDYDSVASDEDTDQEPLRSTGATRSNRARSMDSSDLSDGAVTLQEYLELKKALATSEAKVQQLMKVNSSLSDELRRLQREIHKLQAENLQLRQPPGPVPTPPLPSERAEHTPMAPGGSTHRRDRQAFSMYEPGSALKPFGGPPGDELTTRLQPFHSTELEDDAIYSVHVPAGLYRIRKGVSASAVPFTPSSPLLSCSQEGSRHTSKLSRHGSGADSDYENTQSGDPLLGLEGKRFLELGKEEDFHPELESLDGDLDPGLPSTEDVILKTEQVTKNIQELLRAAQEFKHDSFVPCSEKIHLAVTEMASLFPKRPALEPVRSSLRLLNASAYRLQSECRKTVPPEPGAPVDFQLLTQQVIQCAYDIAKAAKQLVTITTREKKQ
UniProt Q8WWB7: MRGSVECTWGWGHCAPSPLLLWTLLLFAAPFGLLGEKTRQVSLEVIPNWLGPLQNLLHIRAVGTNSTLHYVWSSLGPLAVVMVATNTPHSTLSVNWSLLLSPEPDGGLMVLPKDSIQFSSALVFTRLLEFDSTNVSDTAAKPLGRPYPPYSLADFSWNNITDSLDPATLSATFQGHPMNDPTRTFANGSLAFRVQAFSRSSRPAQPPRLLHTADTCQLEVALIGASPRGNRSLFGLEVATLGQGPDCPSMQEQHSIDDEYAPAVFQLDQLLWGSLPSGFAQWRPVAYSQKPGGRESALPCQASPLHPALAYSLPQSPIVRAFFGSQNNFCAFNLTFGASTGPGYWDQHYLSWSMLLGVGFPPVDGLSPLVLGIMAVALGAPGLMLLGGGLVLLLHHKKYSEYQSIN
UniProt P15104, whole entry, looked up: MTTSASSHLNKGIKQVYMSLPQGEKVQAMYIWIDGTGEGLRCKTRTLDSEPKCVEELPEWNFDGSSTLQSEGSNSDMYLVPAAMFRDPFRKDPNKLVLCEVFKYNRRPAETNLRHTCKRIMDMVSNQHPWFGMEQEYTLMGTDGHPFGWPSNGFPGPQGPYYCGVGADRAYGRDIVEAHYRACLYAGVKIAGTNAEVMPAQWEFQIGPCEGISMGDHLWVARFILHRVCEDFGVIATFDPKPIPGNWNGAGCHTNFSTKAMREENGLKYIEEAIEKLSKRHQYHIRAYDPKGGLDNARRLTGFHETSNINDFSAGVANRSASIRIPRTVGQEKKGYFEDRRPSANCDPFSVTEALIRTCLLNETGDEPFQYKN
UniProt Q9UI32: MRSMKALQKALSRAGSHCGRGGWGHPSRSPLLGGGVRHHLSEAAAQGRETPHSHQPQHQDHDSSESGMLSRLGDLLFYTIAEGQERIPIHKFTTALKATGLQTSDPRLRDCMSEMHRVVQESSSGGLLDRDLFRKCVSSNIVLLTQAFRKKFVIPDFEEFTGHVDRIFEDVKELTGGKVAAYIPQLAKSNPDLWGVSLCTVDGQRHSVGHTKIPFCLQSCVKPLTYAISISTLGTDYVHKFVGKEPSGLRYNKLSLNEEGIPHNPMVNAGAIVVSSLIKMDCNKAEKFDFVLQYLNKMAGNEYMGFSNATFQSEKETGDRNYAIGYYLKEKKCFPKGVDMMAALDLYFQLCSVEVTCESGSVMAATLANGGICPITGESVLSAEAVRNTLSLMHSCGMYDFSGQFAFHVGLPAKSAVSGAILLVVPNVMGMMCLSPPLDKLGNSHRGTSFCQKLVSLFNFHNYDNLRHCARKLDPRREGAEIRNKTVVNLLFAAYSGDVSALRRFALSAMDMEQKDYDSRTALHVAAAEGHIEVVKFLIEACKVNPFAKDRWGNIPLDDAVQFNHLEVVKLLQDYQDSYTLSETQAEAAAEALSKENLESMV

Key:
Test in all cases: log2 fold change, soluble protein after heating vs DMSO (PISA); higher = thermal stabilisation; K562 cells, 10 uM, 30 min; active = over 0.2 and 3.5 SD of the protein, either way, in both replicates (recomputed)
saracatinib = compound: CN1CCN(CCOc2cc(OC3CCOCC3)c3c(Nc4c(Cl)ccc5c4OCO5)ncnc3c2)CC1 [saracatinib]
In short: (§1)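 Soluble protein was defined as the supernatant after 21,000xg for 90 min. It came from K562 cells at 2×10^6 cells/mL given 10 μM compound for 30 min, heated in aliquots for 3 min across 48°C-58°C, pooled, and extracted in PBS with 0.5% NP-40 at 4°C, and was quantified by TMTpro 16plex LC-MS/MS with equalised channel sums. Thermal stability against control samples, from duplicates, is reported as log2 fold change.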

sotrastaurin = compound: CN1CCN(c2nc(C3=C(c4c[nH]c5ccccc45)C(=O)NC3=O)c3ccccc3n2)CC1 [sotrastaurin]
In short: as §1

Tubastatin A = compound: CN1CCc2c(c3ccccc3n2Cc2ccc(C(=O)NO)cc2)C1 [Tubastatin A]
In short: as §1

[1] = compound: CNC(=O)C1=CC=CC=C1NC2=NC(=NC=C2Cl)NC3=C(C=C(C=C3)N4CCOCC4)OC
In short: as §1

defactinib = compound: CNC(=O)c1ccc(Nc2ncc(C(F)(F)F)c(NCc3nccnc3N(C)S(C)(=O)=O)n2)cc1 [defactinib]
In short: as §1

rucaparib = compound: CNCc1ccc(-c2[nH]c3cc(F)cc4c3c2CCNC4=O)cc1 [rucaparib]
In short: as §1

[2] = compound: CNc1nc(-c2ccc3c(N)n[nH]c3c2)cc(N2C[C@@H](C(=O)NC3CCCCC3)CC[C@H]2C)n1
In short: as §1

encorafenib = compound: COC(=O)N[C@@H](C)CNc1nccc(-c2cn(C(C)C)nc2-c2cc(Cl)cc(NS(C)(=O)=O)c2F)n1 [encorafenib]
In short: as §1

[3] = compound: COC(=O)[C@H](CCSC)NC(=O)C1=C(C=C(C=C1)NC[C@H](CS)N)C2=CC=CC=C2
In short: as §1

[4] = compound: COC1=CC=C(C=C1)CN2C=CC3=C2C=C(C=C3)C(=O)NO
In short: as §1

filanesib = compound: CON(C)C(=O)N1N=C(c2cc(F)ccc2F)S[C@@]1(CCCN)c1ccccc1 [filanesib]
In short: as §1

zotarolimus = compound: CO[C@H]1C[C@@H]2CC[C@@H](C)[C@@](O)(O2)C(=O)C(=O)N2CCCC[C@H]2C(=O)O[C@H]([C@H](C)C[C@@H]2CC[C@H](n3cnnn3)[C@H](OC)C2)CC(=O)[C@H](C)/C=C(\C)[C@@H](O)[C@@H](OC)C(=O)[C@H](C)C[C@H](C)/C=C/C=C/C=C/1C [zotarolimus]
In short: as §1

idasanutlin = compound: COc1cc(C(=O)O)ccc1NC(=O)[C@@H]1N[C@@H](CC(C)(C)C)[C@](C#N)(c2ccc(Cl)cc2F)[C@H]1c1cccc(Cl)c1F [idasanutlin]
In short: as §1

alisertib = compound: COc1cc(Nc2ncc3c(n2)-c2ccc(Cl)cc2C(c2c(F)cccc2OC)=NC3)ccc1C(=O)O [alisertib]
In short: as §1

[5] = compound: COc1cc2nc(-c3cc(F)ccc3O)nc(N[C@@H]3CNC[C@H]3C(C)(C)O)c2cc1OC
In short: as §1

gefitinib = compound: COc1cc2ncnc(Nc3ccc(F)c(Cl)c3)c2cc1OCCCN1CCOCC1 [gefitinib]
In short: as §1

[6] = compound: COc1cccc2cc(-c3nc([C@H]4CC[C@H](C(=O)O)CC4)n4ncnc(N)c34)[nH]c12
In short: as §1

lapatinib = compound: CS(=O)(=O)CCNCc1ccc(-c2ccc3ncnc(Nc4ccc(OCc5cccc(F)c5)c(Cl)c4)c3c2)o1 [lapatinib]
In short: as §1

pictilisib = compound: CS(=O)(=O)N1CCN(Cc2cc3nc(-c4cccc5[nH]ncc45)nc(N4CCOCC4)c3s2)CC1 [pictilisib]
In short: as §1

alvocidib = compound: CN1CC[C@H](c2c(O)cc(O)c3c(=O)cc(-c4ccccc4Cl)oc23)[C@H](O)C1 [alvocidib]
In short: as §1

Row | Target | log2 fold change (saracatinib) | log2 fold change (sotrastaurin) | log2 fold change (Tubastatin A) | log2 fold change [1] | log2 fold change (defactinib) | log2 fold change (rucaparib) | log2 fold change [2] | log2 fold change (encorafenib) | log2 fold change [3] | log2 fold change [4] | log2 fold change (filanesib) | log2 fold change (zotarolimus) | log2 fold change (idasanutlin) | log2 fold change (alisertib) | log2 fold change [5] | log2 fold change (gefitinib) | log2 fold change [6] | log2 fold change (lapatinib) | log2 fold change (pictilisib) | log2 fold change (alvocidib)
1 | GNS (UniProt P15586) | inactive: 0.014 | inactive: 0.041 | inactive: -0.012 | inactive: -0.007 | inactive: -0.011 | inactive: 0 | inactive: -0.034 | inactive: 0.009 | inactive: -0.009 | inactive: -0.014 | inactive: -0.041 | inactive: -0.05 | inactive: -0.002 | inactive: -0.034 | inactive: -0.011 | inactive: 0.017 | inactive: 0.039 | inactive: -0.024 | inactive: 0.014 | 
2 | GLRX3 (UniProt O76003) | inactive: -0.017 | inactive: -0.066 | inactive: 0.015 | inactive: 0.053 | inactive: -0.091 | inactive: -0.063 | inactive: -0.023 | inactive: 0.029 | inactive: -0.03 | inactive: 0.005 | inactive: -0.056 | inactive: 0.056 | inactive: -0.001 | inactive: -0.063 | inactive: 0.012 | inactive: -0.009 | inactive: -0.018 | inactive: 0.062 | inactive: -0.003 | 
3 | GPR180 (UniProt Q86V85) | inactive: 0.094 | inactive: -0.05 | inactive: -0.057 |  | inactive: -0.017 |  | inactive: 0.33 |  | inactive: 0.067 |  | inactive: -0.168 | inactive: -0.027 | inactive: -0.054 | inactive: -0.071 | inactive: 0.117 |  | inactive: 0.229 | inactive: -0.032 | inactive: 0.111 | inactive: -0.138
4 | GLCCI1 (UniProt Q86VQ1) | inactive: -0.017 | inactive: -0.016 | inactive: 0.082 | inactive: -0.057 | inactive: -0.072 | inactive: 0.087 | inactive: -0.063 | inactive: 0.026 | inactive: -0.051 | inactive: 0.009 | inactive: 0.052 | inactive: 0.067 | inactive: 0.11 | inactive: -0.025 | inactive: -0.096 | inactive: 0.109 | inactive: 0.083 | inactive: -0.02 | inactive: -0.039 | 
5 | GLUD2 (UniProt P49448) | active: 0.305 | inactive: 0.056 | inactive: -0.016 | inactive: 0.051 | inactive: 0.008 | inactive: 0.003 | inactive: 0.178 | inactive: -0.117 | inactive: -0.042 | inactive: -0.041 | inactive: -0.032 | inactive: 0.123 | inactive: -0.07 | inactive: -0.06 | inactive: -0.003 | inactive: 0.061 | inactive: 0.023 | inactive: 0.191 | inactive: 0.216 | 
6 | GLA (UniProt P06280) | inactive: 0.056 | inactive: -0.027 | inactive: -0.027 | inactive: -0.02 | inactive: 0.008 | inactive: 0.04 | inactive: -0.043 | inactive: -0.022 | inactive: 0.059 | inactive: 0.033 | inactive: -0.048 | inactive: -0.003 | inactive: 0.06 | inactive: -0.089 | inactive: 0.018 | inactive: -0.011 | inactive: 0.01 | inactive: -0.026 | inactive: -0.06 | 
7 | GIT1 isoform 3 (UniProt Q9Y2X7) | inactive: -0.274 | inactive: -0.283 |  |  |  | inactive: 0.547 | inactive: 0.133 | inactive: 0.263 |  | inactive: -0.125 | inactive: 0.081 | inactive: -0.06 | inactive: 0.112 | inactive: -0.03 | inactive: -0.006 |  | inactive: 0.002 | inactive: 0.04 |  | inactive: -0.166
8 | GLMP (UniProt Q8WWB7) | inactive: -0.012 | inactive: 0.244 | inactive: 0.005 |  | inactive: -0.149 | inactive: 0.123 | inactive: 0.034 | inactive: -0.312 | inactive: 0.046 | inactive: 0.062 | inactive: -0.076 | inactive: -0.257 | inactive: -0.086 | inactive: -0.076 | inactive: 0.001 | inactive: -0.064 | inactive: -0.082 | inactive: 0.054 |  | inactive: 0.205
9 | GLUL (UniProt P15104) | inactive: 0.012 | inactive: -0.058 | inactive: 0.048 | inactive: 0.142 | inactive: 0.036 | inactive: -0.039 | inactive: -0.153 | inactive: -0.02 | inactive: 0.038 | inactive: 0.11 | inactive: 0.002 | inactive: -0.154 | inactive: 0.032 | inactive: -0.013 | inactive: -0.061 | inactive: 0.01 | active: -0.225 | inactive: -0.032 | inactive: -0.001 | 
10 | GOSR1 (UniProt E9PCW1) | inactive: 0.109 |  |  | inactive: -0.02 |  | inactive: 0.111 | inactive: 0.017 | inactive: -0.085 |  |  |  | inactive: 0.075 |  | inactive: -0.177 | inactive: -0.262 |  | inactive: 0.176 | inactive: 0.097 |  | inactive: -0.024
11 | GLS2 (UniProt Q9UI32) |  |  |  |  |  |  |  |  |  |  |  | inactive: 0.261 | inactive: 0.086 |  |  |  |  |  |  | inactive: -0.301

Just log2 fold change [4], for some of the entries so far:
Row,Target,log2 fold change [4]
1,GNS (UniProt P15586),inactive: -0.014
2,GLRX3 (UniProt O76003),inactive: 0.005
